# The other results are listed elsewhere or left out.
# Chains of the proteins cited; added tags and fusions are not shown.
# UniProt Q0JBA9, entry or part of it: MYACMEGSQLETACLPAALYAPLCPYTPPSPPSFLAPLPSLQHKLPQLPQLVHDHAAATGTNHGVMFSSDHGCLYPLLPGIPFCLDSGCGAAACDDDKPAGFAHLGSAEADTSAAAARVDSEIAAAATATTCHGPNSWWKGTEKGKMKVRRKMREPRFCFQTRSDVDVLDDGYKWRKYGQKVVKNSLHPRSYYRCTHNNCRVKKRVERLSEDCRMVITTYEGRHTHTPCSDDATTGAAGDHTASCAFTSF
# Molecular target: OsWRKY34 (Oryza sativa, UniProt Q0JBA9 1-250)
# Assay: protein-binding microarray (RPBM); PBS, 2% BSA, 51.3 ng/ul salmon testes DNA, 50 uM zinc acetate, 200 nM TF, 25 C, 1 h; high values mean tight binding
# Conditions: protein: recombinant; tags: N-terminal polyhistidine and DsRed monomer fusion (pET32a); label: CyDye5-dUTP incorporated in the synthesized complementary strand; 3' TTTTT single-stranded linker to array surface; dsDNA, one strand shown
# Outline: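 In PBS with 2% BSA, salmon testes DNA and 50 µM zinc acetate, 200 nM protein was incubated on a custom Agilent array at 25 °C for 1 h and then washed off. The array had been made double-stranded by primer extension with Cy5-dUTP and blocked with 2% BSA. The proteins were transcription factors fused N-terminally to polyhistidine and DsRed, expressed in E. coli BL21-CodonPlus and purified on Ni–NTA. The binding signal is per-feature fluorescence intensity (arbitrary units) from an Axon 4000B scanner.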
row,Sequence,binding signal
1,ATTTATTAGTTTGATCCCTCTTTTATCACCATGTATTGCCCGGAGTCACCTAGTGCAG,8570 fluorescence intensity (a.u.)
2,TCCCGTCCCGTTCCGCTCCAGCGCCTGCGCCGATCTCCATCGGAGTCACCTAGTGCAG,9620 fluorescence intensity (a.u.)
3,AGGTGGGTGGTGGTGGTGCGAGGAGAGGGCGTTGATGAGGCGGAGTCACCTAGTGCAG,12000 fluorescence intensity (a.u.)
4,AATCTGACCTCTTTTTTCTTGCCATTGAAATGTACATGGACGGAGTCACCTAGTGCAG,9150 fluorescence intensity (a.u.)
5,TCTCTCTTCTGCCATTGTTCTTGCATTTCATCCGGTTCTGCGGAGTCACCTAGTGCAG,8700 fluorescence intensity (a.u.)
6,TTCGAAGATGCTCATAGGGGTAGGGTTTGCGTGCGTGTGTCGGAGTCACCTAGTGCAG,11700 fluorescence intensity (a.u.)
7,CCCATGTTTTTTTTTCATATTTTGCAATCTTCGGTTTAAACGGAGTCACCTAGTGCAG,8520 fluorescence intensity (a.u.)
8,TTTGGCTCCAGTTGACGATCTGATTTCTCACTTTCTTCTGCGGAGTCACCTAGTGCAG,11400 fluorescence intensity (a.u.)
9,GCCACCAGCCAATCATGCGCCGCTGCCGCCGCCCTGTCGCCGGAGTCACCTAGTGCAG,8100 fluorescence intensity (a.u.)
10,AGATCATGCTTCTTGTATTTTAGTTGTGGTGGACAAGTTTCGGAGTCACCTAGTGCAG,8330 fluorescence intensity (a.u.)
11,CTCTATTCTTCAGTTGTATATTCGGAACAGTGAACTTCCGCGGAGTCACCTAGTGCAG,8120 fluorescence intensity (a.u.)
12,AACCCGAGTAGGTAACTTTTTCGCGCAGGCCCCTCGGAATCGGAGTCACCTAGTGCAG,9400 fluorescence intensity (a.u.)
13,GCCTAAACAGGGCCTAAACCTCGATGCGTTTTTATCATTTCGGAGTCACCTAGTGCAG,9360 fluorescence intensity (a.u.)
14,TCCGCGCTACTGCCCTAATCCCGCCGCCGCAGCCGCAGCCCGGAGTCACCTAGTGCAG,10100 fluorescence intensity (a.u.)
15,ATAATCATCTTTTAGCTGCTGCATGGGGTTTAGGTGTGGACGGAGTCACCTAGTGCAG,8040 fluorescence intensity (a.u.)
16,CCAACCCAACCCATCCCCTACCTCGCCATCGATGGCGCTGCGGAGTCACCTAGTGCAG,9030 fluorescence intensity (a.u.)
17,TTGGGTGCGCGTCGATTGATTCATTTGATTGGTAGGTATTCGGAGTCACCTAGTGCAG,8410 fluorescence intensity (a.u.)
18,AATCCTTCTTTCATTCTTTGTCTTGATTCTTGAAGCATCTCGGAGTCACCTAGTGCAG,10800 fluorescence intensity (a.u.)
19,TGCTATATATAAGGGACATGCTTTCCGTCGCGTCTCGTCTCGGAGTCACCTAGTGCAG,9200 fluorescence intensity (a.u.)
20,TTACTTGCCTGTTTGTACAGTGATATATCACATGTTAATACGGAGTCACCTAGTGCAG,9240 fluorescence intensity (a.u.)
21,TTTTTATATGTTTGGTTCTTATGAGTTCCTAAGTGTGAAACGGAGTCACCTAGTGCAG,8230 fluorescence intensity (a.u.)

row,Sequence,binding signal
1,CATGATTTTCCCTTTCAATTCGGTTTTAATTAATTCGTTGCGGAGTCACCTAGTGCAG,9330 fluorescence intensity (a.u.)
2,TTTGTCTGTTAGTGATGCCAACAATGCCATCCATCGATCTCGGAGTCACCTAGTGCAG,9110 fluorescence intensity (a.u.)
3,GACCTCACCCGGTTTTCCCTCGCACCGTTACAGCGATTCGCGGAGTCACCTAGTGCAG,8430 fluorescence intensity (a.u.)
4,CACACGCTCTCTGCTAGTCTGATCGCTCTCGCCATCGCACCGGAGTCACCTAGTGCAG,9640 fluorescence intensity (a.u.)
5,TGTTTGGGTTGAGCTTCACCAGCTTCTCCGCCACCGCCGACGGAGTCACCTAGTGCAG,9600 fluorescence intensity (a.u.)
6,CCTCGTCGTCGTCGTCTCCACCCAATCTCTCCCATTTCCACGGAGTCACCTAGTGCAG,10200 fluorescence intensity (a.u.)
7,ATCCTCACCTCACCTCCGCCATTTTCACTGCGGGCTTCCGCGGAGTCACCTAGTGCAG,11300 fluorescence intensity (a.u.)
8,CCATACCATGCGATGCCGGAGCCAACCCTTCCCATCAAATCGGAGTCACCTAGTGCAG,9120 fluorescence intensity (a.u.)
9,CAACACTGACATTGATTCTCAATTATTACTGCAGATGATGCGGAGTCACCTAGTGCAG,8180 fluorescence intensity (a.u.)
10,GCCACTTTTATTACAGCCATGCAGTATGTTCTTTTTTTTTCGGAGTCACCTAGTGCAG,9480 fluorescence intensity (a.u.)
11,TCTCCTCTGACCTGCACCATACCCGGCCTACCTCACCTTCCGGAGTCACCTAGTGCAG,10200 fluorescence intensity (a.u.)
12,ACCATATATTTTTCCTGCAATCCTGCCTTTATCTTGTTTCCGGAGTCACCTAGTGCAG,9080 fluorescence intensity (a.u.)
13,TTTCCTTCCTACTTTTCTCAAGGAATCTGCTTCCAACCACCGGAGTCACCTAGTGCAG,8110 fluorescence intensity (a.u.)
14,CCACGGTGTCACCTCGCGCCCCGCCGCTTTCTCTCCTCTTCGGAGTCACCTAGTGCAG,10100 fluorescence intensity (a.u.)
15,TCACTAGTTAGCAAGTCCTACCTATGCGGCCATCCAAGCACGGAGTCACCTAGTGCAG,9170 fluorescence intensity (a.u.)
16,TACCGCAACGGCAGTTTCCGTATTCACCTCCCCATACTTTCGGAGTCACCTAGTGCAG,8340 fluorescence intensity (a.u.)
17,GGCTTTCCTTCCTGAAGCCGTCCTCATCGTCATCATCTCGCGGAGTCACCTAGTGCAG,8320 fluorescence intensity (a.u.)
18,ATACAGTTACCTTTTTCGCATCTTTTCCCAAGCCCGTAGTCGGAGTCACCTAGTGCAG,9350 fluorescence intensity (a.u.)
19,GGTTCATCTATACTCGACCTTATCATATGTTCCATTTCTACGGAGTCACCTAGTGCAG,9140 fluorescence intensity (a.u.)
20,CAGCAGCCTCCAGCACTTGGTCACACACGTCACTCTACCACGGAGTCACCTAGTGCAG,8460 fluorescence intensity (a.u.)
21,TCACCTTTTAGGTGATAAAGGTGACGGTTCTTTTGGTTTTCGGAGTCACCTAGTGCAG,8260 fluorescence intensity (a.u.)

# Reformatted: results already given
row | Sequence | binding signal
7 | ATCCTCACCTCACCTCCGCCATTTTCACTGCGGGCTTCCGCGGAGTCACCTAGTGCAG | 11300 fluorescence intensity (a.u.)
8 | CCATACCATGCGATGCCGGAGCCAACCCTTCCCATCAAATCGGAGTCACCTAGTGCAG | 9120 fluorescence intensity (a.u.)
9 | CAACACTGACATTGATTCTCAATTATTACTGCAGATGATGCGGAGTCACCTAGTGCAG | 8180 fluorescence intensity (a.u.)

# Reference: publication PMC7819943, “Rice protein-binding microarrays: a tool to detect cis-acting elements near promoter regions in rice”
